According to the supplement of paper PMC7858590:
± gives the standard deviation of the averaged measurements. In all, about 3,800 compounds were measured (“cell shape (eccentricity) Z-score vs DMSO control”: median about 1.1, lowest 2% from about -4.7 on). This is one part of the list.

tested on: human monocyte-derived macrophages (M0); test: cell shape (eccentricity) Z-score vs DMSO control; higher = more elongated, M2-like morphology; settings: 20 µM; 24 h; macrophage state: M0 (M-CSF)

Compared with `Cc1c(N)nc([C@H](CC(N)=O)NC[C@@H](N)C(N)=O)nc1C(=O)N[C@H](C(=O)N[C@@H](C)[C@H](O)[C@@H](C)C(=O)N[C@@H](C(=O)NCCc1nc(-c2nc(C(=O)NCCC[S+](C)C)cs2)cs1)[C@@H](C)O)C(O[C@H]1O[C@H](CO)[C@H](O)[C@@H](O)[C@H]1O[C@H]1O[C@H](CO)[C@@H](O)[C@H](OC(N)=O)[C@@H]1O)c1c[nH]cn1` (stereo not given in full), `CCCC[C@@H](C)[C@@H](OC(=O)C[C@@H](CC(=O)O)C(=O)O)[C@H](CC(C)C[C@H](O)CCCC[C@@H](O)C[C@H](O)[C@H](C)N)OC(=O)C[C@@H](CC(=O)O)C(=O)O` (stereo not given in full) is lower in “cell shape (Z-score)” value: 0.636 for the first, -4.01 for the second.

Compared with `FC(F)(F)c1cccc(N2CCNCC2)c1`, `Clc1cccc(N2CCNCC2)c1` is higher in “cell shape (Z-score)” value: 1.7 for the first, 3.51 for the second.

First: C=CCN1CC(C(=O)N(CCCN(C)C)C(=O)NCC)CC2c3cccc4[nH]cc(c34)CC21 (stereo not given)
Second: CN1C[C@H](CNC(=O)OCc2ccccc2)C[C@@H]2c3cccc4c3c(cn4C)C[C@H]21
The “cell shape (Z-score)” value of the first is higher: -1.01 for the first, -1.59 for the second.

Compared with `C/C=C/c1ccc2c(c1)OCO2`, `COC1=CC(=O)O[C@@H](CCc2ccc3c(c2)OCO3)C1` is lower in “cell shape (Z-score)” value: 2.7 for the first, -1.18 for the second.

First: Cc1cc(C(=O)CN2CCCC2)c(C)n1-c1ccc(F)cc1
Second: CN(C(=O)Cc1ccc(Cl)c(Cl)c1)C(CN1CCCC1)c1cccc(OCC(=O)O)c1 (stereo not given)
The “cell shape (Z-score)” value of the first is higher: 2.25 for the first, -0.643 for the second.

Going from `CC(C)c1cc2c(cc1O)[C@@]1(C)C[C@@H](O)CC(C)(CO)C1CC2` (stereo not given in full) to `CC(C)c1cc2c(cc1O)[C@@]1(C)CCCC(C)(C)[C@@H]1CC2O` (stereo not given in full), the “cell shape (Z-score)” value falls from 3.19 to 0.729.

Going from `CC(C)(C)NCC(O)c1ccccc1Cl` (stereo not given) to `CC(C)(C)NCC(O)c1cc(Cl)c(N)c(Cl)c1` (stereo not given), the “cell shape (Z-score)” value rises from 2.94 to 4.41.

First: CCCN(CCC)[C@@H]1CCc2c(OC)cccc2[C@@H]1C
Second: CCCN(CCC)C1CCc2ccc(O)cc2C1 (stereo not given)
The “cell shape (Z-score)” value of the first is higher: 4.64 for the first, -0.796 for the second.

First: CN(C)C(=S)SSC(=S)N(C)C
Second: COc1cccc([C@]2(O)CCCC[C@H]2CN(C)C)c1
The “cell shape (Z-score)” value of the first is higher: 5.26 for the first, 3.18 for the second.

Going from `COc1ccc(C(=O)N2CCCC2=O)cc1` to `COc1ccc(C(=O)c2c(C)n(CCN3CCOCC3)c3cc(I)ccc23)cc1`, the “cell shape (Z-score)” value falls from 2.64 to 1.96.

First: CC1(C)CCC[C@]2(C)c3cc(O)c(O)cc3C(=O)CC12 (stereo not given in full)
Second: CNC(=O)Oc1ccc2c(c1)[C@]1(C)CCN(C)[C@@H]1N2C
The “cell shape (Z-score)” value of the first is higher: 1.44 for the first, 1.01 for the second.

Going from `C[N+]12CCC(CC1)C(OC(=O)C(O)(c1ccccc1)c1ccccc1)C2` (stereo not given) to `CN1C(=O)[C@@H](NC(=O)c2cc3ccccc3[nH]2)N=C(c2ccccc2)c2ccccc21`, the “cell shape (Z-score)” value falls from 1.72 to 0.677.

First: CC1CCC/C=C\C2CC(O)CC2C(O)/C=C\C(=O)O1 (stereo not given)
Second: C[N+]12CC[C@@]34c5ccccc5N5C(=O)CC6OCC=C(C1)[C@H](CC32)[C@@H]6C54 (stereo not given in full)
The “cell shape (Z-score)” value of the first is higher: 0.397 for the first, -0.173 for the second.

Going from `C=CCN1C[C@H](C)N([C@H](c2ccc(C(=O)N(CC)CC)cc2)c2cccc(OC)c2)C[C@H]1C` to `CC[C@@H](CO)NC(=O)[C@@H]1C=C2c3cccc4c3c(cn4C)C[C@H]2N(C)C1`, the “cell shape (Z-score)” value falls from 3.78 to 1.68.

Compared with `CC(N)Cc1c[nH]c2ccc(O)cc12` (stereo not given), `NCCc1ccc(O)cc1` is higher in “cell shape (Z-score)” value: 1.41 for the first, 1.45 for the second.

Compared with `CN1c2ccccc2C(NCCCCCCC(=O)O)c2ccc(Cl)cc2S1(=O)=O` (stereo not given), `O=C(O)c1ccc2[nH]cc(CCCCN3CC=C(c4ccccc4)CC3)c2c1` is lower in “cell shape (Z-score)” value: 0.787 for the first, 0.151 for the second.

Compared with `C[C@@H]1Cc2c(Cl)cc(C(=O)N[C@@H](Cc3ccccc3)C(=O)O)c(O)c2C(=O)O1`, `Oc1ccc2c3c1OC1c4c(c5ccccc5n4Cc4ccccc4)CC4(O)C(C2)N(CC2CC2)CCC314` (stereo not given) is lower in “cell shape (Z-score)” value: 2.05 for the first, -0.456 for the second.

First: C1CN2CCC1CC2
Second: Cn1cc(C(=O)C(=O)N[C@H]2CN3CCC2CC3)c2ccccc21
The “cell shape (Z-score)” value of the first is lower: -0.128 for the first, 0.679 for the second.

`CC(C)C(O)(C(=O)OCC1=CCN2CCC(O)C12)C(C)O` (stereo not given) and `COC(=O)C1=CCCN(C)C1` are within error of each other in “cell shape (Z-score)” value: 0.823 ± 2.3 for the first, 2.09 for the second.

Going from `C/C=C(\C)C(=O)OC1C(C)=C2C(C1OC(=O)CCCCC)C(C)(OC(C)=O)CC(OC(=O)CCC)C1(O)C2OC(=O)C1(C)O` (stereo not given) to `CC(=O)O[C@H]1C[C@@H](OC(C)=O)C(C)(C)C2C[C@@H](OC(C)=O)[C@]3(C)C(CC[C@@]4(C)[C@H](c5ccoc5)C(=O)[C@H]5O[C@]543)[C@]21C` (stereo not given in full), the “cell shape (Z-score)” value falls from 1.67 to 0.275.

Going from `Oc1cc(Cl)ccc1Oc1ccc(Cl)cc1Cl` to `COc1ccc(Cc2nccc3cc(OC)c(OC)cc23)cc1OC`, the “cell shape (Z-score)” value falls from 2.88 to -1.22.

Going from `CCCN1CCC[C@@H]2Cc3nc(N)ncc3C[C@H]21` to `COc1cc2c(cc1OC)C13CCN(C)CC4=CCOC5CC(=O)N2C1C5C4CC3=O` (stereo not given), the “cell shape (Z-score)” value falls from 4.21 to -1.4.

First: O=C(O)C1=CCCN(CCOC(c2ccc(C(F)(F)F)cc2)c2ccc(C(F)(F)F)cc2)C1
Second: C(=Cc1ccccc1)CN1CCN(CCOC(c2ccccc2)c2ccccc2)CC1
The “cell shape (Z-score)” value of the first is lower: 1.96 for the first, 1.98 for the second.

Going from `NCCc1ccccn1` to `Cc1nc(N)sc1CCN`, the “cell shape (Z-score)” value rises from 2.36 to 2.39.

Going from `CC(C)(C)NC[C@H](O)COc1cccc2[nH]c(C#N)cc12` to `CC(C)(O)[C@H]1O[C@H]2CC[C@@]3(C)[C@@](O)(CC[C@H]4Cc5c([nH]c6ccccc56)[C@@]43C)C2=CC1=O`, the “cell shape (Z-score)” value falls from 1.39 to 1.06.

First: Cc1ccc2c(c1)C1(CCN(CCc3nc(-c4ccccc4)oc3C)CC1)OC(=O)N2
Second: COC1(C[S@@](=O)c2ccccc2)CCN(CCc2c[nH]c3ccc(F)cc23)CC1
The “cell shape (Z-score)” value of the first is higher: 0.325 for the first, -3.05 for the second.

First: COc1cc([C@@H]2c3cc4c(cc3[C@H](OC(C)=O)[C@H]3COC(=O)[C@H]23)OCO4)cc(OC)c1OC
Second: COc1cc2c(cc1-c1cc3cc4ccoc4cc3oc1=O)OCO2
The “cell shape (Z-score)” value of the first is higher: 9.18 for the first, 0.00462 for the second.

Going from `CC(C)(c1ccc(OCC2CO2)cc1)c1ccc(OCC2CO2)cc1` (stereo not given) to `O=c1ccc2cc(O[C@@H]3O[C@H](CO)[C@@H](O)[C@H](O)[C@H]3O)c(O)cc2o1`, the “cell shape (Z-score)” value rises from 1.24 to 2.48.

Compared with `CCNC(=O)C1OC(n2cnc3c(N)ncnc32)C(O)C1O` (stereo not given), `C[C@@H]1O[C@@H](O[C@@H]2C=C3CC[C@@H]4C(C[C@@H](O)[C@]5(C)[C@@H](c6ccc(=O)oc6)CC[C@]45O)[C@@]3(C)CC2)[C@H](O)[C@H](O)[C@H]1O[C@@H]1O[C@H](CO)[C@@H](O)[C@H](O)[C@H]1O` (stereo not given in full) is lower in “cell shape (Z-score)” value: 4.21 for the first, -1.17 ± 1.1 for the second.

First: Cn1c(CCCC(=O)O)nc2cc(N(CCCl)CCCl)ccc21
Second: C/C(=C/C=C/[C@@H](C)C(=O)O)[C@H]1CN[C@H](C(=O)O)[C@H]1CC(=O)O
The “cell shape (Z-score)” value of the first is lower: 0.618 ± 1.1 for the first, 1.92 for the second.
